Results from the odorant receptor screen of Mainland et al. (2015).
Several values for one entry are separate records, joined by “and”; a condition that tells them apart may be missing. Equal values may be shown once. The list shows a part of the results. Single wells; the ratio to wells without odorant was worked out here, and repeats agree poorly.

Chains of the proteins cited; added tags and fusions are not shown. Chains listed by the source or under a name are the forms on record and can include a tag or linker.
OR4F14 A297T, as listed by the source, stated change not applied: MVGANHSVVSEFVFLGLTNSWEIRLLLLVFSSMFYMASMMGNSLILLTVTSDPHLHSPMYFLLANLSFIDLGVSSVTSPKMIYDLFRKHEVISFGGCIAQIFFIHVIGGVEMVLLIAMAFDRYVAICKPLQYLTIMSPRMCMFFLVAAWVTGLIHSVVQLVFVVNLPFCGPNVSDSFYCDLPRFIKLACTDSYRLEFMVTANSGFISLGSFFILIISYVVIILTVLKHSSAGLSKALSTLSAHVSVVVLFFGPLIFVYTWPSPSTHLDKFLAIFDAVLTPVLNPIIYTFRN

Tests used:
Test in all cases: odorant receptor activation (CRE luciferase / Renilla) (fold of no-odor wells); higher = more activation
Conditions in all cases: 100 µM
OR4D1 R54Q clone 1467 = tested on: OR4D1 R54Q clone 1467
OR4D1 clone 1316 = tested on: OR4D1 clone 1316
OR4D10 clone 1174 = tested on: OR4D10 clone 1174
OR4D11 clone 1243 = tested on: OR4D11 clone 1243
[1] = tested on: OR4D2 C97S/L187F clone 1285
OR4D5 clone 1122 = tested on: OR4D5 clone 1122
OR4D6 D96G clone 1225 = tested on: OR4D6 D96G clone 1225
OR4D9 clone 1217 = tested on: OR4D9 clone 1217
[2] = tested on: OR4E2 V118M/Q234R clone 1274
OR4F14 A297T clone 1059 = tested on: OR4F14 A297T clone 1059
OR4F15 clone 1074 = tested on: OR4F15 clone 1074
OR4F15 clone 1434 = tested on: OR4F15 clone 1434
OR4F16 clone 1060 = tested on: OR4F16 clone 1060
OR4F17 clone 1161 = tested on: OR4F17 clone 1161
OR4F21 clone 1580 = tested on: OR4F21 clone 1580
OR4F4 clone 1556 = tested on: OR4F4 clone 1556
OR4F5 clone 1557 = tested on: OR4F5 clone 1557
OR4F6 clone 1058 = tested on: OR4F6 clone 1058
OR4F6 clone 1537 = tested on: OR4F6 clone 1537
OR4K1 R89H clone 1269 = tested on: OR4K1 R89H clone 1269

SMILES	odorant receptor activation (OR4D1 R54Q clone 1467)	odorant receptor activation (OR4D1 clone 1316)	odorant receptor activation (OR4D10 clone 1174)	odorant receptor activation (OR4D11 clone 1243)	odorant receptor activation [1]	odorant receptor activation (OR4D5 clone 1122)	odorant receptor activation (OR4D6 D96G clone 1225)	odorant receptor activation (OR4D9 clone 1217)	odorant receptor activation [2]	odorant receptor activation (OR4F14 A297T clone 1059)	odorant receptor activation (OR4F15 clone 1074)	odorant receptor activation (OR4F15 clone 1434)	odorant receptor activation (OR4F16 clone 1060)	odorant receptor activation (OR4F17 clone 1161)	odorant receptor activation (OR4F21 clone 1580)	odorant receptor activation (OR4F4 clone 1556)	odorant receptor activation (OR4F5 clone 1557)	odorant receptor activation (OR4F6 clone 1058)	odorant receptor activation (OR4F6 clone 1537)	odorant receptor activation (OR4K1 R89H clone 1269)
CCCCOC(C)=O [butyl acetate]	1.09	0.86	1.01	0.895	0.89	0.976	0.868	0.958	0.923	1.01	1.01	0.196	0.939	1.19	1.5	1.03	0.849	1.27	0.944	0.995
CS [methanethiol]	1.3	0.697	0.797	0.802	0.937	0.76	0.904	1.02	0.885	1.02	0.964	0.896	1.22	1.15	0.496	0.993	1.12	1.12	0.84	0.753
CCC(C)=O [2-butanone]	0.939	1.08	0.765	1.42	1.37	0.812	0.599	0.813	0.922	4.06	2.86	1.49	2.82	0.929	0.789	1.43	1.55	3.55	1.06	1.34
CCOc1cc(C=O)ccc1O [ethyl vanillin]	0.848 and 1.28 and 1.33	1.11 and 1.24	1.76 and 1.03	1.11 and 1.1	–	0.962	1.16 and 1.05	1.35 and 1.05	1.13 and 0.98	1.33 and 0.967	1.49 and 1.03	1.07 and 1.23	0.755 and 0.861	1.98 and 0.938	0.737	0.808	1.05	1.03 and 1.2	1.16 and 1.65 and 1.28	1.07 and 1.05
